Record: PubChem BioAssay AID504804 (Drosophila RNAi Screening Center, 2011)
The deposit covers about 19,000 reagents; shown is a random part of those with a known target gene and a result. Over the whole deposit, 47 (0.25%) got an active call. 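Signals are raw, not normalised; exact z-scores behind calls not deposited; actives needed confirmation, so some wells reaching 2 SD are inactive.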 Names joined by + are all predicted targets of the reagent.

- Aim: 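dsRNAs that improve Kc cell survival under doxorubicin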 (primary screen)
- Cells: Drosophila Kc cells
- Reagent: long dsRNA against Drosophila genes, 0.5 µg dsRNA per well
- Timing: 96 h (48 h knock-down, then 48 h drug)
- Challenge: doxorubicin 5 µg/ml for 48 h, added 48 h after dsRNA
- Read-out: 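Viability measured as cellular ATP by luminescence after 48 h knock-down then 48 h doxorubicin at 5 µg/ml; unnormalised plate counts for each replicate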
- Direction: raw ATP luminescence: higher = more viable cells, protection from doxorubicin
- Active means: 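Active when both duplicate wells lie at least 2 SD above the plate mean and protection is confirmed by rescreening and independent dsRNAs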

RhoGAPp190 [DRSC20097]
- raw ATP luminescence, replicate 1: 2.74e5
- raw ATP luminescence, replicate 2: 2.61e5
- Outcome: inactive

nrv1 [DRSC03382]
- SD above plate mean: at least 2 SD above plate mean
- raw ATP luminescence, replicate 1: 1.51e5
- raw ATP luminescence, replicate 2: 1.15e5
- Outcome: active

CG32551 [DRSC19259]
- raw ATP luminescence, replicate 1: 2.25e5
- raw ATP luminescence, replicate 2: 2.67e5
- Outcome: inactive

CG7099 [DRSC03006]
- raw ATP luminescence, replicate 1: 68950
- raw ATP luminescence, replicate 2: 79780
- Outcome: inactive

CG12842 (retired record) [DRSC06188]
- raw ATP luminescence, replicate 1: 43143
- raw ATP luminescence, replicate 2: 78860
- Outcome: inactive

CG3529 [DRSC10369]
- raw ATP luminescence, replicate 1: 34583
- raw ATP luminescence, replicate 2: 39053
- Outcome: inactive

CG2006 + Spase12 [DRSC14316]
- raw ATP luminescence, replicate 1: 35610
- raw ATP luminescence, replicate 2: 40890
- Outcome: inactive

mu2 [DRSC08726]
- raw ATP luminescence, replicate 1: 53523
- raw ATP luminescence, replicate 2: 51323
- Outcome: inactive

CG6026 [DRSC15950]
- raw ATP luminescence, replicate 1: 34380
- raw ATP luminescence, replicate 2: 38990
- Outcome: inactive

Spc25 [DRSC14164]
- raw ATP luminescence, replicate 1: 82480
- raw ATP luminescence, replicate 2: 75150
- Outcome: inactive

CG7333 [DRSC16229]
- raw ATP luminescence, replicate 1: 58930
- raw ATP luminescence, replicate 2: 65830
- Outcome: inactive

CG8036 [DRSC16366]
- raw ATP luminescence, replicate 1: 62767
- raw ATP luminescence, replicate 2: 60470
- Outcome: inactive

tey [DRSC11042]
- raw ATP luminescence, replicate 1: 80793
- raw ATP luminescence, replicate 2: 67670
- Outcome: inactive

CG13071 [DRSC09954]
- raw ATP luminescence, replicate 1: 52353
- raw ATP luminescence, replicate 2: 52220
- Outcome: inactive

brv2 [DRSC10226]
- raw ATP luminescence, replicate 1: 43640
- raw ATP luminescence, replicate 2: 40837
- Outcome: inactive

Vha44 [DRSC07572]
- raw ATP luminescence, replicate 1: 63233
- raw ATP luminescence, replicate 2: 74523
- Outcome: inactive

CG8028 [DRSC20075]
- raw ATP luminescence, replicate 1: 3.71e5
- raw ATP luminescence, replicate 2: 2.96e5
- Outcome: inactive

CG1637 [DRSC18865]
- raw ATP luminescence, replicate 1: 2.07e5
- raw ATP luminescence, replicate 2: 2.00e5
- Outcome: inactive

CG1637 [DRSC19749]
- raw ATP luminescence, replicate 1: 3.56e5
- raw ATP luminescence, replicate 2: 3.48e5
- Outcome: inactive

Cad99C [DRSC15050]
- raw ATP luminescence, replicate 1: 68100
- raw ATP luminescence, replicate 2: 38010
- Outcome: inactive

CG8209 [DRSC10970]
- raw ATP luminescence, replicate 1: 75087
- raw ATP luminescence, replicate 2: 82730
- Outcome: inactive

fbp [DRSC02077]
- raw ATP luminescence, replicate 1: 92463
- raw ATP luminescence, replicate 2: 59977
- Outcome: inactive

t [DRSC17815]
- raw ATP luminescence, replicate 1: 3.20e5
- raw ATP luminescence, replicate 2: 3.13e5
- Outcome: inactive

CG9497 [DRSC03234]
- raw ATP luminescence, replicate 1: 1.01e5
- raw ATP luminescence, replicate 2: 65543
- Outcome: inactive

Mst57Da [DRSC16744]
- raw ATP luminescence, replicate 1: 60870
- raw ATP luminescence, replicate 2: 57730
- Outcome: inactive

Capa [DRSC15058]
- SD above plate mean: 2 to 3 SD above plate mean
- Outcome: active

krimp [DRSC06578]
- raw ATP luminescence, replicate 1: 70577
- raw ATP luminescence, replicate 2: 60407
- Outcome: inactive

Rad17 [DRSC16811]
- raw ATP luminescence, replicate 1: 70100
- raw ATP luminescence, replicate 2: 84030
- Outcome: inactive

Axs [DRSC19333]
- raw ATP luminescence, replicate 1: 3.21e5
- raw ATP luminescence, replicate 2: 3.19e5
- Outcome: inactive

yip3 [DRSC04724]
- raw ATP luminescence, replicate 1: 35940
- raw ATP luminescence, replicate 2: 45627
- Outcome: inactive

CG17249 [DRSC08517]
- raw ATP luminescence, replicate 1: 53750
- raw ATP luminescence, replicate 2: 64110
- Outcome: inactive

CG12835 (retired record) [DRSC06181]
- raw ATP luminescence, replicate 1: 50733
- raw ATP luminescence, replicate 2: 89190
- Outcome: inactive

maca [DRSC15738]
- raw ATP luminescence, replicate 1: 73830
- raw ATP luminescence, replicate 2: 62590
- Outcome: inactive

CG14937 [DRSC02419]
- raw ATP luminescence, replicate 1: 37490
- raw ATP luminescence, replicate 2: 51073
- Outcome: inactive

nudC [DRSC11096]
- raw ATP luminescence, replicate 1: 53677
- raw ATP luminescence, replicate 2: 59043
- Outcome: inactive

nudC [DRSC11097]
- raw ATP luminescence, replicate 1: 62747
- raw ATP luminescence, replicate 2: 56137
- Outcome: inactive

Ordered by “raw ATP luminescence, replicate 2” (ascending): 4 of the entries above
CG7099 [DRSC03006]
- raw ATP luminescence, replicate 1: 68950
- raw ATP luminescence, replicate 2: 79780
- Outcome: inactive

nrv1 [DRSC03382]
- SD above plate mean: at least 2 SD above plate mean
- raw ATP luminescence, replicate 1: 1.51e5
- raw ATP luminescence, replicate 2: 1.15e5
- Outcome: active

RhoGAPp190 [DRSC20097]
- raw ATP luminescence, replicate 1: 2.74e5
- raw ATP luminescence, replicate 2: 2.61e5
- Outcome: inactive

CG32551 [DRSC19259]
- raw ATP luminescence, replicate 1: 2.25e5
- raw ATP luminescence, replicate 2: 2.67e5
- Outcome: inactive
